{"source": "PubChem BioAssay AID256", "about": "(DTP/NCI, 2004)", "tested_on": "CD2F1 mice, L1210 leukemia ip, survival T/C", "test": "NCI In Vivo Anticancer Drug Screen. Data for tumor model L1210 Leukemia (intraperitoneal) in CD2F1 (CDF1) mice", "details": "higher T/C = longer survival", "how_it_was_run": "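Mice carrying a transplanted tumor received test compound or vehicle alone. The value is the measurement in the treated group divided by that in the vehicle-treated control group.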", "note": "The list does not hold the whole screen: it gathers tests that were run many times, whatever their T/C, doses with no T/C, and many T/C values between a quarter and a half above the control. Further doses and runs are listed elsewhere. T/C gives the treated animals as a percentage of the vehicle group. Some doses have a count of surviving animals in place of a T/C: the source files T/C as zero there, which appears to mark a toxic dose or a test without result, not a measured value. Some doses without a T/C left all or most animals alive at the check, yet need not have been tolerated: the source hardly ever lists a survival T/C far under the control, and the zero likely stands for such cases as well. Counts of survivors are from the toxicity check (mostly the fifth day) where no day follows; animals may have died later. Schedule codes are those of the source, read here as Q, the interval in days (D) or hours (H), X, the number of doses. Some molecules as drawn cover several salts, stereoisomers or complexes of the source; a dose is that of the sample tested. Marks such as (2×) say how often a value occurs here. Some entries were tested several times; their values stand side by side, smallest first. Where survival is the endpoint, this PubChem deposit counts one and a half times the control or more as active, and values a quarter to a half above the control carry no call in these data; other NCI protocols may use other cut-offs. Some T/C values carry the count of animals alive at the toxicity check (mostly the fifth day); without a count, all were alive then.", "data": [{"smiles": "COc1cc(NS(C)(=O)=O)ccc1Nc1c2ccccc2nc2ccccc12", "values": [{"measurement": "T/C", "setting": "T/C endpoint: mean survival time, dose: 128.0 mg/kg/injection, schedule: Q01DX001 (oral), vehicle: saline", "value": "133 % of control"}, {"measurement": "survivor count", "setting": "T/C endpoint: mean survival time, dose: 128.0 mg/kg/injection, schedule: Q04DX003 (ip), vehicle: saline", "value": "10 of 10"}, {"measurement": "T/C", "setting": "T/C endpoint: mean survival time, dose: 128.0 mg/kg/injection, schedule: Q08DX002 (ip), vehicle: saline", "value": "127 % of control"}, {"measurement": "survivor count", "setting": "T/C endpoint: mean survival time, dose: 200.0 mg/kg/injection, schedule: Q01DX009 (ip), vehicle: saline with Tween-80", "value": "1 of 6"}, {"measurement": "survivor count", "setting": "T/C endpoint: mean survival time, dose: 256.0 mg/kg/injection, schedule: Q01DX001 (ip), vehicle: saline", "value": "3 of 10"}, {"measurement": "T/C", "setting": "T/C endpoint: mean survival time, dose: 256.0 mg/kg/injection, schedule: Q01DX001 (oral), vehicle: saline", "value": "133 % of control"}, {"measurement": "survivor count", "setting": "T/C endpoint: mean survival time, dose: 256.0 mg/kg/injection, schedule: Q08DX002 (ip), vehicle: saline", "value": "8 of 10"}, {"measurement": "survivor count", "setting": "T/C endpoint: mean survival time, dose: 400.0 mg/kg/injection, schedule: Q01DX009 (ip), vehicle: saline with Tween-80", "value": "0 of 6"}, {"measurement": "survivor count", "setting": "T/C endpoint: mean survival time, dose: 512.0 mg/kg/injection, schedule: Q01DX001 (oral), vehicle: saline", "value": "5 of 10"}, {"measurement": "survivor count", "setting": "T/C endpoint: mean survival time, dose: 1024.0 mg/kg/injection, schedule: Q01DX001 (oral), vehicle: saline", "value": "6 of 10"}, {"measurement": "T/C", "setting": "T/C endpoint: median survival time, dose: 0.06 mg/kg/injection, schedule: Q03HX024 (ip), vehicle: other", "value": "125 % of control [9 of 10 alive] (2×)"}, {"measurement": "T/C", "setting": "T/C endpoint: median survival time, dose: 0.12 mg/kg/injection, schedule: Q03HX024 (ip), vehicle: other", "value": "125 % of control (2×)"}, {"measurement": "T/C", "setting": "T/C endpoint: median survival time, dose: 0.25 mg/kg/injection, schedule: Q01DX009 (ip), vehicle: other", "value": "125 % of control (2×)"}, {"measurement": "T/C", "setting": "T/C endpoint: median survival time, dose: 0.25 mg/kg/injection, schedule: Q01DX009 (ip), vehicle: saline with Tween-80", "value": "128 % of control"}, {"measurement": "T/C", "setting": "T/C endpoint: median survival time, dose: 0.25 mg/kg/injection, schedule: Q03HX008 (ip), vehicle: other", "value": "125 % of control (2×)"}, {"measurement": "T/C", "setting": "T/C endpoint: median survival time, dose: 0.25 mg/kg/injection, schedule: Q03HX024 (ip), vehicle: other", "value": "137 % of control (2×)"}, {"measurement": "T/C", "setting": "T/C endpoint: median survival time, dose: 0.5 mg/kg/injection, schedule: Q01DX009 (ip), vehicle: other", "value": "137 % of control (2×)"}, {"measurement": "T/C", "setting": "T/C endpoint: median survival time, dose: 0.5 mg/kg/injection, schedule: Q01DX009 (ip), vehicle: saline with Tween-80", "value": "134 % of control"}, {"measurement": "T/C", "setting": "T/C endpoint: median survival time, dose: 0.5 mg/kg/injection, schedule: Q03HX008 (ip), vehicle: other", "value": "137 % of control (2×)"}, {"measurement": "T/C", "setting": "T/C endpoint: median survival time, dose: 0.5 mg/kg/injection, schedule: Q03HX016 (ip), vehicle: other", "value": "131 % of control (2×)"}, {"measurement": "T/C", "setting": "T/C endpoint: median survival time, dose: 0.5 mg/kg/injection, schedule: Q03HX024 (ip), vehicle: other", "value": "143 % of control (2×)"}, {"measurement": "T/C", "setting": "T/C endpoint: median survival time, dose: 0.5 mg/kg/injection, schedule: Q04DX003 (ip), vehicle: other", "value": "125 % of control (2×)"}, {"measurement": "T/C", "setting": "T/C endpoint: median survival time, dose: 1.0 mg/kg/injection, schedule: Q01DX009 (ip), vehicle: other, evaluated on day 30", "value": "134 % of control"}, {"measurement": "T/C", "setting": "T/C endpoint: median survival time, dose: 1.0 mg/kg/injection, schedule: Q01DX009 (ip), vehicle: other, evaluated on day 60", "value": "137 % of control (2×)"}, {"measurement": "T/C", "setting": "T/C endpoint: median survival time, dose: 1.0 mg/kg/injection, schedule: Q01DX009 (ip), vehicle: saline with Tween-80", "value": "129 and 148 % of control"}, {"measurement": "T/C", "setting": "T/C endpoint: median survival time, dose: 1.0 mg/kg/injection, schedule: Q04DX003 (ip), vehicle: other", "value": "131 % of control (2×)"}, {"measurement": "T/C", "setting": "T/C endpoint: median survival time, dose: 2.0 mg/kg/injection, schedule: Q01DX009 (ip), vehicle: saline with Tween-80", "value": "134 % of control"}, {"measurement": "T/C", "setting": "T/C endpoint: median survival time, dose: 2.0 mg/kg/injection, schedule: Q01DX009 (sc), vehicle: other", "value": "131 % of control (2×)"}, {"measurement": "T/C", "setting": "T/C endpoint: median survival time, dose: 2.0 mg/kg/injection, schedule: Q03HX024 (ip), vehicle: other", "value": "137 % of control [9 of 10 alive] (2×)"}, {"measurement": "T/C", "setting": "T/C endpoint: median survival time, dose: 2.0 mg/kg/injection, schedule: Q04DX003 (ip), vehicle: other", "value": "137 % of control (2×)"}, {"measurement": "T/C", "setting": "T/C endpoint: median survival time, dose: 2.0 mg/kg/injection, schedule: Q08DX002 (ip), vehicle: other", "value": "125 % of control (2×)"}, {"measurement": "T/C", "setting": "T/C endpoint: median survival time, dose: 4.0 mg/kg/injection, schedule: Q01DX001 (ip), vehicle: other", "value": "137 % of control (2×)"}, {"measurement": "survivor count", "setting": "T/C endpoint: median survival time, dose: 4.0 mg/kg/injection, schedule: Q03HX008 (ip), vehicle: other", "value": "6 of 10 and 6 of 9"}, {"measurement": "survivor count", "setting": "T/C endpoint: median survival time, dose: 4.0 mg/kg/injection, schedule: Q03HX016 (ip), vehicle: other", "value": "5 of 10 (2×)"}, {"measurement": "survivor count", "setting": "T/C endpoint: median survival time, dose: 4.0 mg/kg/injection, schedule: Q03HX024 (ip), vehicle: other", "value": "7 of 10 (2×)"}, {"measurement": "T/C", "setting": "T/C endpoint: median survival time, dose: 4.0 mg/kg/injection, schedule: Q08DX002 (ip), vehicle: other", "value": "137 % of control (2×)"}, {"measurement": "T/C", "setting": "T/C endpoint: median survival time, dose: 4.32 mg/kg/injection, schedule: Q04DX003 (ip), vehicle: other", "value": "139 % of control"}, {"measurement": "T/C", "setting": "T/C endpoint: median survival time, dose: 7.2 mg/kg/injection, schedule: Q04DX003 (ip), vehicle: other", "value": "146 % of control"}, {"measurement": "T/C", "setting": "T/C endpoint: median survival time, dose: 8.0 mg/kg/injection, schedule: Q01DX001 (ip), vehicle: other", "value": "143 % of control (2×)"}, {"measurement": "survivor count", "setting": "T/C endpoint: median survival time, dose: 8.0 mg/kg/injection, schedule: Q03HX008 (ip), vehicle: other", "value": "0 of 10 (2×)"}, {"measurement": "survivor count", "setting": "T/C endpoint: median survival time, dose: 8.0 mg/kg/injection, schedule: Q03HX016 (ip), vehicle: other", "value": "1 of 10 (2×)"}, {"measurement": "T/C", "setting": "T/C endpoint: median survival time, dose: 8.0 mg/kg/injection, schedule: Q04DX003 (ip), vehicle: other", "value": "134 % of control"}, {"measurement": "survivor count", "setting": "T/C endpoint: median survival time, dose: 16.0 mg/kg/injection, schedule: Q01DX001 (ip), vehicle: other", "value": "5 of 10"}, {"measurement": "T/C", "setting": "T/C endpoint: median survival time, dose: 16.0 mg/kg/injection, schedule: Q01DX001 (oral), vehicle: other", "value": "125 % of control (2×)"}, {"measurement": "T/C", "setting": "T/C endpoint: median survival time, dose: 16.0 mg/kg/injection, schedule: Q01DX001 (sc), vehicle: other", "value": "125 % of control (2×)"}, {"measurement": "survivor count", "setting": "T/C endpoint: median survival time, dose: 16.0 mg/kg/injection, schedule: Q01DX009 (ip), vehicle: other", "value": "8 of 10 (2×)"}, {"measurement": "T/C", "setting": "T/C endpoint: median survival time, dose: 16.0 mg/kg/injection, schedule: Q01DX009 (ip), vehicle: saline with Tween-80", "value": "139 % of control"}, {"measurement": "survivor count", "setting": "T/C endpoint: median survival time, dose: 16.0 mg/kg/injection, schedule: Q03HX008 (ip), vehicle: other", "value": "0 of 10 (2×)"}, {"measurement": "survivor count", "setting": "T/C endpoint: median survival time, dose: 16.0 mg/kg/injection, schedule: Q03HX016 (ip), vehicle: other", "value": "0 of 10 (2×)"}, {"measurement": "survivor count", "setting": "T/C endpoint: median survival time, dose: 32.0 mg/kg/injection, schedule: Q01DX001 (ip), vehicle: other", "value": "4 of 10 (2×)"}, {"measurement": "T/C", "setting": "T/C endpoint: median survival time, dose: 32.0 mg/kg/injection, schedule: Q01DX001 (oral), vehicle: other", "value": "125 % of control (2×)"}, {"measurement": "T/C", "setting": "T/C endpoint: median survival time, dose: 32.0 mg/kg/injection, schedule: Q01DX001 (sc), vehicle: other", "value": "137 % of control (2×)"}, {"measurement": "survivor count", "setting": "T/C endpoint: median survival time, dose: 32.0 mg/kg/injection, schedule: Q01DX009 (oral), vehicle: other", "value": "9 of 10 (2×)"}, {"measurement": "survivor count", "setting": "T/C endpoint: median survival time, dose: 32.0 mg/kg/injection, schedule: Q08DX002 (ip), vehicle: other", "value": "5 of 10 (2×)"}, {"measurement": "survivor count", "setting": "T/C endpoint: median survival time, dose: 64.0 mg/kg/injection, schedule: Q01DX001 (ip), vehicle: other", "value": "0 of 10 (2×)"}, {"measurement": "survivor count", "setting": "T/C endpoint: median survival time, dose: 64.0 mg/kg/injection, schedule: Q01DX009 (oral), vehicle: other", "value": "5 of 10 (2×)"}, {"measurement": "survivor count", "setting": "T/C endpoint: median survival time, dose: 64.0 mg/kg/injection, schedule: Q08DX002 (ip), vehicle: other", "value": "1 of 10 (2×)"}, {"measurement": "survivor count", "setting": "T/C endpoint: median survival time, dose: 128.0 mg/kg/injection, schedule: Q01DX001 (ip), vehicle: other", "value": "0 of 10 (2×)"}, {"measurement": "survivor count", "setting": "T/C endpoint: median survival time, dose: 128.0 mg/kg/injection, schedule: Q01DX001 (oral), vehicle: other", "value": "6 of 10 (2×)"}, {"measurement": "survivor count", "setting": "T/C endpoint: median survival time, dose: 128.0 mg/kg/injection, schedule: Q08DX002 (ip), vehicle: other", "value": "0 of 10 (2×)"}, {"measurement": "survivor count", "setting": "T/C endpoint: median survival time, dose: 256.0 mg/kg/injection, schedule: Q01DX001 (oral), vehicle: other", "value": "1 of 10 (2×)"}, {"measurement": "survivor count", "setting": "T/C endpoint: median survival time, dose: 512.0 mg/kg/injection, schedule: Q01DX001 (oral), vehicle: other", "value": "0 of 10 (2×)"}]}]}
